One data set deals with OATP1B2. Put plainly: Untargeted metabolomics of plasma and DRG, WT vs OATP1B2-deficient mice. As to conditions: Figure 5B source data (volcano plot), untargeted metabolomics, WT vs OATP1B2-deficient mice; log2 fold change of metabolite level. Format: in vivo, mouse.
On to `O=C(O)CCCNCCC(=O)O` [carboxyethyl-GABA], for which the Log2FoldChange is -0.6897.
For the molecule `CCCCC/C=C\CCC(=O)O` [cis-4-decenoate (10:1n6)*], the Log2FoldChange was -0.4739.

Staying with this data set, now noted: mouse, in vivo.
Molecule `CC[C@H](CC[C@@H](C)[C@H]1CC[C@H]2[C@@H]3CC=C4C[C@@H](O)CC[C@]4(C)[C@H]3CC[C@]12C)C(C)C` [beta-sitosterol] had a Log2FoldChange of 0.4854.

The data set is the same for the next values; noted with them: untargeted metabolomics, WT vs OATP1B2-deficient mice; supplement sheet "Figure 5B".
`C[N+](C)(C)CC(=O)O` [betaine] had a Log2FoldChange of 0.2016.
Same read-out and setting: for `CCCCCCCCCC(=O)O` [caprate (10:0)] the value was 0.08406; for `NCCC(=O)N[C@@H](Cc1cnc[nH]1)C(=O)O` [carnosine], -0.08927; for `O=C(O)[C@H]1O[C@@H](Oc2ccccc2O)[C@H](O)[C@@H](O)[C@@H]1O` [catechol glucuronide], -0.1203.
The same measure, in the same setting: for `C[N+](C)(C)CCO` [choline] the value was 0.08406; for `CCCC1CC1CC(=O)OC(CC(=O)[O-])C[N+](C)(C)C` (stereo not drawn) [cis-3,4-methyleneheptanoylcarnitine], 0.1763.
Turning to `O=C(O)/C=C\c1c[nH]cn1` [cis-urocanate], the Log2FoldChange was -0.1203.
`CC(C)=CCCC(C)CC(=O)O` (centres unmarked) [citronellic acid] showed a Log2FoldChange of -0.0145.
Still for that read-out and setting: for `NC(=O)NCCC[C@H](N)C(=O)O` [citrulline] the value was -0.074.
On the same count and under the same terms, for `CN1CC(=O)NC1=N` [creatinine] the value was 0.1375.

The data set is the same for the next values; noted with them: untargeted metabolomics, WT vs OATP1B2-deficient mice; supplement sheet "Figure 5B" (volcano plot).
The molecule `C[C@H](CCC(=O)O)[C@H]1CC[C@H]2[C@@H]3[C@@H](O)[C@@H](O)[C@@H]4C[C@H](O)CC[C@]4(C)[C@H]3CC[C@]12C` [beta-muricholate] returned a Log2FoldChange of 3.923.
Same read-out and setting: for `C[N+]1(C)C[C@H](O)C[C@H]1C(=O)[O-]` [betonicine] the value was 0.2265; for `C=CC1=C(C)/C(=C/c2[nH]c(Cc3[nH]c(/C=C4\NC(=O)C(C)=C4C=C)c(C)c3CCC(=O)O)c(CCC(=O)O)c2C)NC1=O` [bilirubin (E,E)*], 2.614; for `C=CC1=C(C)/C(=C/c2[nH]c(Cc3[nH]c(/C=C4\NC(=O)C(C)=C4C=C)c(C)c3CCC(=O)O)c(CCC(=O)O)c2C)NC1=O` [bilirubin (Z,Z)], 2.392.
The same measure, in the same setting: for `C=CC1=C(C)/C(=C/C2=NC(=C\c3[nH]c(/C=C4\NC(=O)C(C)=C4C=C)c(C)c3CCC(=O)O)/C(CCC(=O)O)=C2C)NC1=O` [biliverdin] the value was 2.0321; for `CCCC(=O)NCC(=O)O` [butyrylglycine], 0.7824; for `CC(C)[C@H](C)CC[C@@H](C)[C@H]1CC[C@H]2[C@@H]3CC=C4C[C@@H](O)CC[C@]4(C)[C@H]3CC[C@]12C` [campesterol], 0.2869.
Molecule `CCCCCC(=O)O` [caproate (6:0)] showed a Log2FoldChange of 0.263.
As for `C[C@H](CCC(=O)O)[C@H]1CC[C@H]2[C@@H]3[C@H](O)C[C@@H]4C[C@H](O)CC[C@]4(C)[C@H]3CC[C@]12C` [chenodeoxycholate], the Log2FoldChange stood at 1.836.
Same read-out and setting: for `O=C(O)/C=C/c1ccccc1` [cinnamate] the value was 0.6781; for `O=C(O)CNC(=O)/C=C/c1ccccc1` [cinnamoylglycine], 0.9928.

Staying with this data set, now noted: untargeted metabolomics, sheet "Figure 5C", WT vs OATP1B2-deficient mice.
In turn, `C[N+](C)(C)CC=O` [betaine aldehyde] displayed a Log2FoldChange of -0.3401.
Turning to `CCCC(=O)OC(CC(=O)[O-])C[N+](C)(C)C` (centres unmarked) [butyrylcarnitine (C4)], the Log2FoldChange was 0.1763.
On the same count and under the same terms, for `CCCCCCCCCC(=O)O` [caprate (10:0)] the value was 0.02857.
The molecule `CCCCCC(=O)O` [caproate (6:0)] gave a Log2FoldChange of 0.1375.
On the same count and under the same terms, for `CC(C)CCC[C@@H](C)[C@H]1CC[C@H]2[C@@H]3CC=C4C[C@@H](O)CC[C@]4(C)[C@H]3CC[C@]12C` [cholesterol] the value was -0.1047.
In the case of `C[N+](C)(C)CCOP(=O)(O)O` [choline phosphate], the Log2FoldChange is -0.0145.
Same read-out and setting: for `CCCCC/C=C\CCC(=O)O` [cis-4-decenoate (10:1n6)*] the value was 0.263.
Same read-out and setting: for `NC(=O)NCCC[C@H](N)C(=O)O` [citrulline] the value was 0.111.

These data come from paper PMC10443802 (JCI Insight, 2023).
